Some of the results follow.
Legend:
Experiment in all cases: log2 fold change, soluble protein after heating vs DMSO (PISA); higher = thermal stabilisation; K562 lysate, 10 uM; active = over 0.2 and 3.5 SD of the protein, either way, in both replicates (recomputed)
erlotinib = compound: C#Cc1cccc(Nc2ncnc3cc(OCCOC)c(OCCOC)cc23)c1 [erlotinib]
Outline: (§1)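 The values are log-two fold changes in thermal stability compared with solvent controls and come from duplicates. They were obtained by TMTpro 16plex LC-MS/MS, with channel sums equalised, on the supernatant after 21,000xg for 90 min. That supernatant came from crude K562 extract at 1 mg/mL protein treated with 10 μM compound for 30 min, heated for 3 min across 48°C-58°C, pooled and brought to 0.5% NP-40 at 4°C.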

By UniProt entry, the sequences of proteins in these tests, tags left out. Where a name states a change or a piece, a line headed by the entry shows the natural chain unless it says otherwise.
UniProt Q8TEA1: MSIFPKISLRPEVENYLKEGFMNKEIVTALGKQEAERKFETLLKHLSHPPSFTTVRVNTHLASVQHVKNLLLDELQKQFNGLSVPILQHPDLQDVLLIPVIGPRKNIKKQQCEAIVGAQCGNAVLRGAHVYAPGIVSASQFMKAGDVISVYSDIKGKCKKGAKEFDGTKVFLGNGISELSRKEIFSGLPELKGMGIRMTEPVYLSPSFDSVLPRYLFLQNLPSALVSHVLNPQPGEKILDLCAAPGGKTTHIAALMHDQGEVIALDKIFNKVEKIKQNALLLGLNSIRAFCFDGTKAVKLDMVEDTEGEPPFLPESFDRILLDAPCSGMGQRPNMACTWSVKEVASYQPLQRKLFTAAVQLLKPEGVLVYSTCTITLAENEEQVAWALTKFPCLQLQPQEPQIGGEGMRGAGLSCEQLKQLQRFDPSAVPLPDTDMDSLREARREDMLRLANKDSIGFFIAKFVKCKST
UniProt Q9HAN9, whole entry, looked up: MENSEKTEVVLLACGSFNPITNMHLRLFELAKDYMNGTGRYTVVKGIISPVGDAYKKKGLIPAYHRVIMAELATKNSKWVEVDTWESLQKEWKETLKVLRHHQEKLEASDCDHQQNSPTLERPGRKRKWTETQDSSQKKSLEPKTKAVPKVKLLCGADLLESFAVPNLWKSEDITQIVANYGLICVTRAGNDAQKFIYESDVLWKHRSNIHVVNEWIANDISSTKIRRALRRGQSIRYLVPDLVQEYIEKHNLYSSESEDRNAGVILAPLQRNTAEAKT
UniProt Q9BRJ7: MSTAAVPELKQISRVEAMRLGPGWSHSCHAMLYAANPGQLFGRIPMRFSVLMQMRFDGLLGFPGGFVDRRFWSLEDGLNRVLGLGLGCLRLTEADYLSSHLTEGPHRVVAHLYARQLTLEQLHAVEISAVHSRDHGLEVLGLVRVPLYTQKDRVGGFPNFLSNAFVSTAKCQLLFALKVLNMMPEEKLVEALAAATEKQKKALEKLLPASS
UniProt Q9NV35: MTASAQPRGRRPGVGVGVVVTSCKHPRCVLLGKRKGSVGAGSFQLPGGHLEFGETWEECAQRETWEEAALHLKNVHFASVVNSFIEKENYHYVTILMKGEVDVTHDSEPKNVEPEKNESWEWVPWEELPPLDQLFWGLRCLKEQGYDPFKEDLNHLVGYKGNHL
UniProt Q86U38: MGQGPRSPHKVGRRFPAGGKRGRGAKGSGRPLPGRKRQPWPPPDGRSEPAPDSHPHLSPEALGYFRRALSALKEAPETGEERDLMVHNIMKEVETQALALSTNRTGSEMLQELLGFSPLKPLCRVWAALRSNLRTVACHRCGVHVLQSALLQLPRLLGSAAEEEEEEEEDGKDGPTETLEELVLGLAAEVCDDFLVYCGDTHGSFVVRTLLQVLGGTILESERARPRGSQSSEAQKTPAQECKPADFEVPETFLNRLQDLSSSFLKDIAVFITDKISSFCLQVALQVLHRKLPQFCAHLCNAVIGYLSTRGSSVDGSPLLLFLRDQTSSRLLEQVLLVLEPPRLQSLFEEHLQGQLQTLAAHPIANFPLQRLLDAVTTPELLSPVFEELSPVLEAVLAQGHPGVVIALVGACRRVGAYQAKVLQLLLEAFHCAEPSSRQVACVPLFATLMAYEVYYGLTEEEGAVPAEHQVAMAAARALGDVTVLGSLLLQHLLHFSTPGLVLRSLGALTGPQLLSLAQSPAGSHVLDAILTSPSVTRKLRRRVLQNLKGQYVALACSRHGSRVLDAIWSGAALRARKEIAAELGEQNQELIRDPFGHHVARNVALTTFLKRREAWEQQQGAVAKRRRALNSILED
UniProt Q02818: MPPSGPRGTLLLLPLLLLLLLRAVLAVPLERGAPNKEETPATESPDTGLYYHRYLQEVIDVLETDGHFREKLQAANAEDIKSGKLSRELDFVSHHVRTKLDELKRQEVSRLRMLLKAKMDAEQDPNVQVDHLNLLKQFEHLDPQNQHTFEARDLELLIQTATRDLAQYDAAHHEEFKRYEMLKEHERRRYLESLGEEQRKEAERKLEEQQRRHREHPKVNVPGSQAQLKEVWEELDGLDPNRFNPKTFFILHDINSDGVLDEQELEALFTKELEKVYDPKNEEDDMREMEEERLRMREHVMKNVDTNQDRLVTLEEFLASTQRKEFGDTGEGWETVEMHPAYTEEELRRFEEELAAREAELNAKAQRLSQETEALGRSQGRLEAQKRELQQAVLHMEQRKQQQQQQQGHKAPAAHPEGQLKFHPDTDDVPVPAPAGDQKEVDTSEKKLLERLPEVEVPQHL
UniProt P30419: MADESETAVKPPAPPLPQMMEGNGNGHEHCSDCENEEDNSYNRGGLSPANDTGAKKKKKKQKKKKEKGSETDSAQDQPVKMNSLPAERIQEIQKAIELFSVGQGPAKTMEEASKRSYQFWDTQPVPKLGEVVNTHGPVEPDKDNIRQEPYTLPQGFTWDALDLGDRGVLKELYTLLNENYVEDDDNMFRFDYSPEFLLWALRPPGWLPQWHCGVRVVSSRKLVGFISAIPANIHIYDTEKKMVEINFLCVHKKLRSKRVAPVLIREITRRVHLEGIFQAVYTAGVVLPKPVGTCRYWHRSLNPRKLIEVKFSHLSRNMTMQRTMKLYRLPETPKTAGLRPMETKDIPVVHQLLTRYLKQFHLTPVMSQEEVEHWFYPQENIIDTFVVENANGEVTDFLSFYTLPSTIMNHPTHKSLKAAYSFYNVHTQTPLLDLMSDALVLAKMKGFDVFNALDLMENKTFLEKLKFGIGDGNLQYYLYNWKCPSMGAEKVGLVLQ
UniProt Q9H6R4: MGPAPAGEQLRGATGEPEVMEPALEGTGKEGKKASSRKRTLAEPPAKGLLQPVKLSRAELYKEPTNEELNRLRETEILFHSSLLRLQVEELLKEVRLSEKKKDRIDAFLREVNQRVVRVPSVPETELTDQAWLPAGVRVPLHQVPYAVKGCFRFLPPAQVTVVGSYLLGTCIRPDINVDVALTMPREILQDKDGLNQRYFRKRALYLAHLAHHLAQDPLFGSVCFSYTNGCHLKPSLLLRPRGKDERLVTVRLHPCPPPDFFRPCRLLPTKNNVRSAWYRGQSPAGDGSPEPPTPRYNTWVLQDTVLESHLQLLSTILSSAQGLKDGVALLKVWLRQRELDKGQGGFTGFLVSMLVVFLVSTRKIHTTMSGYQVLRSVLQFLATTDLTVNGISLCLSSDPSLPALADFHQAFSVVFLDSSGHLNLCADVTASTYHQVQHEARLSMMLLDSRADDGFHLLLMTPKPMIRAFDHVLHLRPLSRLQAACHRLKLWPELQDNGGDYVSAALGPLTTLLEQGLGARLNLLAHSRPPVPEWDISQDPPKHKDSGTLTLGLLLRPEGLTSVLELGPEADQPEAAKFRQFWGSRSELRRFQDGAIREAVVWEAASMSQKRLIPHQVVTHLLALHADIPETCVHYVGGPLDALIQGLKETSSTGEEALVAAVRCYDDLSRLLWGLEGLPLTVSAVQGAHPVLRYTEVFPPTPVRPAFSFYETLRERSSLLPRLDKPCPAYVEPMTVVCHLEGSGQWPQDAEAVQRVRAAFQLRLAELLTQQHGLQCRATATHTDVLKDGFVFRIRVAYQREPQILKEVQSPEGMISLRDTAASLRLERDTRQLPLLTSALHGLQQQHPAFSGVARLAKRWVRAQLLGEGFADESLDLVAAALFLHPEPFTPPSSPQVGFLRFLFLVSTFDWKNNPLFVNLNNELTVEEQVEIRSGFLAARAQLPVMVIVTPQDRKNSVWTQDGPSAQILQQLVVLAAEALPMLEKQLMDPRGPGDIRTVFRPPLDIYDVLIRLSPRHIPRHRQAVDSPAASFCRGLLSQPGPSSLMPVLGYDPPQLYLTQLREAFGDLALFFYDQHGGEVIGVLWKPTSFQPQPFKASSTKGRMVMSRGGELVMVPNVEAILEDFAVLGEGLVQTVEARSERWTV
UniProt Q9BSC4: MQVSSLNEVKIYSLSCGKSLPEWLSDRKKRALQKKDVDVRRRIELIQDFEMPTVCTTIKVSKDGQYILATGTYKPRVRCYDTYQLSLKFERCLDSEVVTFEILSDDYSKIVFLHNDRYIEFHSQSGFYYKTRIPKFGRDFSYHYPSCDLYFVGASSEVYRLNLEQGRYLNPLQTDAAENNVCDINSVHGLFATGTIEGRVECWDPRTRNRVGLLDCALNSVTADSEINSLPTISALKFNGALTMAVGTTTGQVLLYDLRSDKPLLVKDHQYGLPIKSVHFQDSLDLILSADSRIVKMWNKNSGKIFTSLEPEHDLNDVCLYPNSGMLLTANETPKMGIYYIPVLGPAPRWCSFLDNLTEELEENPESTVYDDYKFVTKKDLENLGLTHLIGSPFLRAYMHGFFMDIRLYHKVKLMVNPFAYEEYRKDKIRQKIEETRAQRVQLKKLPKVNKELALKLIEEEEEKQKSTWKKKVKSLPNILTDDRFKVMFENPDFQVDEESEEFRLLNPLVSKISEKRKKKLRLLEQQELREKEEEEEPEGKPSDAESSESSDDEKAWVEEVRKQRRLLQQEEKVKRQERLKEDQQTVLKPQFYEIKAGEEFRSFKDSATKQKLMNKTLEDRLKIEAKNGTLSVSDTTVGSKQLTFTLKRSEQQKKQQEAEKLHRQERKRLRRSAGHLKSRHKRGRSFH
UniProt Q9BZD4: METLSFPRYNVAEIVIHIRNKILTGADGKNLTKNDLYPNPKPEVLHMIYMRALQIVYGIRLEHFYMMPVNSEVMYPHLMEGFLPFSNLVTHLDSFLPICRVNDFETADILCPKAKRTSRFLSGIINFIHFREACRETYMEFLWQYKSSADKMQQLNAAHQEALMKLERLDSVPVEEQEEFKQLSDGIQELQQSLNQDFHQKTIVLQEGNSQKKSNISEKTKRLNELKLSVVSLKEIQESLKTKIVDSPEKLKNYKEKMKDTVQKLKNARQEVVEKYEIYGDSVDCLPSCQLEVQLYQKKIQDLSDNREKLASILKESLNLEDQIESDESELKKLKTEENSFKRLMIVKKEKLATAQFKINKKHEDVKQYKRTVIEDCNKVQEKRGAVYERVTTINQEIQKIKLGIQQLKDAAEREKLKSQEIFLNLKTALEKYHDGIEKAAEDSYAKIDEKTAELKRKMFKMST
UniProt Q9BSD7: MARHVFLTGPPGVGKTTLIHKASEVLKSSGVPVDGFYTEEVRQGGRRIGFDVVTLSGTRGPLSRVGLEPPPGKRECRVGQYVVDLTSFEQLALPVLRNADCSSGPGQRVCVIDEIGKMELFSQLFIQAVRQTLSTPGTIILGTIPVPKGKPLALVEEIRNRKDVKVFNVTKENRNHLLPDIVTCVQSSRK
UniProt P22392, whole entry, looked up: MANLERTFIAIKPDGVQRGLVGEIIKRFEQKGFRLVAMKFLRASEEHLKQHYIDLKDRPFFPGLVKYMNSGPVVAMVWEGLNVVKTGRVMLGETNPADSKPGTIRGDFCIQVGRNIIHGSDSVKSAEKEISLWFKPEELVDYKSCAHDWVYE
UniProt P61916: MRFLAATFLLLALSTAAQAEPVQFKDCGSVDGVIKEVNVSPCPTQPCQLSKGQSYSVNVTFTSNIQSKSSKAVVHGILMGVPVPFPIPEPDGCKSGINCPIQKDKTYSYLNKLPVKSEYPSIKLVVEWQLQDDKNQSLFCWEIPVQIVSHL
UniProt P49757: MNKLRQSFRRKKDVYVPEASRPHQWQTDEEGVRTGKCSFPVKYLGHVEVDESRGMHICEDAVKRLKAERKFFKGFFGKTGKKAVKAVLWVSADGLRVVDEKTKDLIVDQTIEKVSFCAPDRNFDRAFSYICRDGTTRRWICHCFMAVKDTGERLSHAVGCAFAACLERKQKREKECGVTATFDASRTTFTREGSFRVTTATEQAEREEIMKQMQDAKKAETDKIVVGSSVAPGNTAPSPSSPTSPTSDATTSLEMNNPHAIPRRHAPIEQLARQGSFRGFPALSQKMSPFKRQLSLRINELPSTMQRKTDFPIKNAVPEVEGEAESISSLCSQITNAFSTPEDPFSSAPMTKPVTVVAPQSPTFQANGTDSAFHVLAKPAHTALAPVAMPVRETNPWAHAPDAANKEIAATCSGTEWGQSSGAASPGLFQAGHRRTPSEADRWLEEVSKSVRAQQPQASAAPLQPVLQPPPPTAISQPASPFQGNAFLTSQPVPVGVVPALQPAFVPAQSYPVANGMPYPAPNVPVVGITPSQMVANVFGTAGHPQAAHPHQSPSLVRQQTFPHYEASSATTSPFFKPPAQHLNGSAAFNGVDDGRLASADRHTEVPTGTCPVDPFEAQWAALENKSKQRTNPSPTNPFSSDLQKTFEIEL
UniProt Q9NZJ9: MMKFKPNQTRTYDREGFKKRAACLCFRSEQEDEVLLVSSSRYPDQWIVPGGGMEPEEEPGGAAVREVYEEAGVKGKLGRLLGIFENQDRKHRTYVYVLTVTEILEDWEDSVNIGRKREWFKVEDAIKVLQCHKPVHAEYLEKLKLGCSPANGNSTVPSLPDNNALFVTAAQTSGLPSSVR

[1] = compound: C/C(=N\NC(=O)C1=CC(=CC=C1)S(=O)(=O)N2CCOCC2)/C3=C(C=CC(=C3)Cl)O
Outline: as §1

[2] = compound: C1=CC(=CC=C1C2=NC3=C(N2)C=C(C=C3)C(=O)N)OC4=CC=C(C=C4)Cl
Outline: as §1

[3] = compound: C1=CC2=C(C=CC(=C2)/C=C\3/C(=O)NC(=NCC4=CC=CS4)S3)N=C1
Outline: as §1

[4] = compound: C1=CC2=NC=CN=C2C=C1/C=C/3\C(=O)NC(=O)S3
Outline: as §1

[5] = compound: C1=CC=C(C=C1)C2=NC(=C(N2)C3=CC=NC=C3)C4=CC(=C(C=C4)Cl)O
Outline: as §1

[6] = compound: C1=CC=C2C(=C1)C3=NNC4=CC=CC(=C43)C2=O
Outline: as §1

[7] = compound: C1CCN(C1)C(=O)NC2=CC=CC(=C2)NC3=NC=C(C(=N3)NCCC4=CN=CN4)Br
Outline: as §1

[8] = compound: C1CN(CCC1(CC2=CC=C(C=C2)Cl)N)C3=NC=NC4=C3C=CN4
Outline: as §1

IRAK-1-4 Inhibitor I = compound: C1COCCN1CCN2C3=CC=CC=C3N=C2NC(=O)C4=CC(=CC=C4)[N+](=O)[O-] [IRAK-1-4 Inhibitor I]
Outline: as §1

ibrutinib = compound: C=CC(=O)N1CCC[C@@H](n2nc(-c3ccc(Oc4ccccc4)cc3)c3c(N)ncnc32)C1 [ibrutinib]
Outline: as §1

[9] = compound: CC(=O)c1cnc2ccc(-c3cc(Cl)c(O)c(Cl)c3)nc2c1N[C@H]1CC[C@H](CN(C)C)CC1
Outline: as §1

ralimetinib = compound: CC(C)(C)Cn1c(N)nc2ccc(-c3[nH]c(C(C)(C)C)nc3-c3ccc(F)cc3)nc21 [ralimetinib]
Outline: as §1

[10] = compound: CC(C)(O)CC(=O)NCCn1ccc2ncnc(Nc3ccc(Oc4cccc(C(F)(F)F)c4)c(Cl)c3)c21
Outline: as §1

[11] = compound: CC(C)C1=C2N=C(C=C(N2N=C1)NCC3=CC=CC=C3)NCCCCCCN
Outline: as §1

[12] = compound: CC1=C(C(CC(=O)N1)C2=CC=C(C=C2)C(F)(F)F)C(=O)NC3=C(C=C4C(=C3)C=NN4)F
Outline: as §1

[13] = compound: CC1=C(C2=C(C=C1)C(=O)C3=CC=CC=C3N2CCCN)C
Outline: as §1

[14] = compound: CC1=C(C=C(C=C1)NC(=O)C2=CC(=CC=C2)C(C)(C)C#N)NC3=CC4=C(C=C3)N=CN(C4=O)C
Outline: as §1

[15] = compound: CC1=C(C=C(C=C1)NC(=O)C2=CC(=CC=C2)N(C)C)NC(=O)C3=CC=C(C=C3)O
Outline: as §1

[16] = compound: CC1=CC=C(C=C1)SC2=C3C=C(SC3=CN=C2)C(=O)N
Outline: as §1

Measured: log2 fold change

NSUN6 (UniProt Q8TEA1)
inactive: erlotinib 0.013 | [1] -0.046 | [2] -0.005 | [3] -0.012 | [4] -0.011 | [5] -0.009 | [6] -0.058 | [7] 0.013 | [8] 0.005 | IRAK-1-4 Inhibitor I -0.014 | ibrutinib 0.036 | [9] -0.005 | ralimetinib 0.047 | [10] 0.006 | [11] 0.011 | [12] 0.031 | [13] -0.053 | [14] -0.006 | [15] 0.018 | [16] -0.037

NMNAT1 (UniProt Q9HAN9)
inactive: erlotinib -0.028 | [1] 0.037 | [2] 0.042 | [3] 0.026 | [4] -0.008 | [5] 0.028 | [6] -0.012 | [7] 0.041 | [8] -0.09 | IRAK-1-4 Inhibitor I -0.017 | ibrutinib -0.024 | [9] -0.025 | ralimetinib 0.041 | [10] -0.031 | [11] -0.098 | [12] -0.012 | [13] -0.029 | [14] 0.017 | [15] 0.023 | [16] -0.012

NUDT16L1 (UniProt Q9BRJ7)
inactive: erlotinib 0.035 | [1] -0.007 | [2] 0.011 | [3] 0.027 | [4] -0.052 | [5] -0.037 | [6] -0.027 | [7] 0.003 | [8] -0.045 | IRAK-1-4 Inhibitor I -0.043 | ibrutinib 0.007 | [9] 0.014 | ralimetinib 0.009 | [10] -0.063 | [11] 0.024 | [12] 0.023 | [13] 0.012 | [14] 0.031 | [15] 0.018 | [16] -0.01

NUDT15 (UniProt Q9NV35)
inactive: erlotinib 0.007 | [1] 0.028 | [2] -0.033 | [3] 0.031 | [4] -0.006 | [5] 0.016 | [6] -0.001 | [7] -0.005 | [8] 0.01 | IRAK-1-4 Inhibitor I -0.015 | ibrutinib 0.006 | [9] -0.024 | ralimetinib -0.019 | [10] 0 | [11] -0.015 | [12] 0.022 | [13] 0.047 | [14] -0.006 | [15] 0.028 | [16] 0.009

NOP9 (UniProt Q86U38)
inactive: erlotinib 0.039 | [1] -0.077 | [2] -0.105 | [3] -0.058 | [4] 0.004 | [5] -0.034 | [6] 0.045 | [7] 0.042 | [8] -0.058 | IRAK-1-4 Inhibitor I -0.043 | ibrutinib -0.062 | [9] -0.079 | ralimetinib 0.048 | [10] -0.037 | [11] -0.016 | [12] -0.014 | [13] -0.055 | [14] -0.029 | [15] 0.065 | [16] 0.071

NUCB1 (UniProt Q02818)
inactive: erlotinib -0.022 | [1] 0.016 | [2] 0 | [3] -0.036 | [4] -0.021 | [5] -0.007 | [6] -0.013 | [7] 0.008 | [8] -0.001 | IRAK-1-4 Inhibitor I 0.011 | ibrutinib 0.052 | [9] -0.004 | ralimetinib -0.001 | [10] -0.001 | [11] -0.025 | [12] 0.038 | [13] 0.019 | [14] 0.011 | [15] -0.008 | [16] 0.009

NMT1 (UniProt P30419)
inactive: erlotinib -0.027 | [1] -0.147 | [2] 0.15 | [3] 0.019 | [4] -0.021 | [5] -0.024 | [6] 0.062 | [7] -0.012 | [8] -0.165 | IRAK-1-4 Inhibitor I -0.027 | ibrutinib -0.045 | [9] 0.005 | ralimetinib -0.001 | [10] 0.014 | [11] 0.022 | [12] -0.011 | [13] -0.009 | [14] -0.01 | [15] 0.017 | [16] 0.001

NOL6 (UniProt Q9H6R4)
inactive: erlotinib -0.035 | [1] 0.075 | [2] -0.016 | [3] -0.038 | [4] 0.021 | [5] -0.01 | [6] 0 | [7] 0.008 | [8] 0.006 | IRAK-1-4 Inhibitor I -0.011 | ibrutinib 0.01 | [9] 0.008 | ralimetinib 0.025 | [10] -0.031 | [11] 0.08 | [12] -0.003 | [13] 0.002 | [14] 0.019 | [15] 0.034 | [16] 0.014

NOL10 (UniProt Q9BSC4)
inactive: erlotinib -0.01 | [1] -0.031 | [2] 0.015 | [3] 0.005 | [4] 0.106 | [5] -0.065 | [6] 0.044 | [7] -0.142 | [8] -0.04 | IRAK-1-4 Inhibitor I -0.015 | ibrutinib 0.04 | [9] -0.029 | ralimetinib 0.014 | [10] 0.065 | [11] 0.255 | [12] -0.177 | [13] -0.037 | [14] -0.017 | [15] 0.069 | [16] 0.025

NUF2 (UniProt Q9BZD4)
inactive: erlotinib 0.009 | [1] 0.006 | [2] -0.012 | [3] 0.03 | [4] -0.002 | [5] -0.047 | [6] -0.047 | [7] -0.039 | [8] -0.004 | IRAK-1-4 Inhibitor I -0.039 | ibrutinib -0.052 | [9] -0.051 | ralimetinib 0.03 | [10] 0.015 | [11] -0.001 | [12] 0.018 | [13] 0.027 | [14] -0.011 | [15] 0.044 | [16] 0.009

NTPCR (UniProt Q9BSD7)
inactive: erlotinib 0.015 | [1] -0.263 | [2] -0.007 | [3] 0.065 | [4] 0.031 | [5] 0.018 | [6] -0.045 | [7] 0.025 | [8] 0.046 | IRAK-1-4 Inhibitor I -0.011 | ibrutinib -0.004 | [9] 0.002 | ralimetinib 0.014 | [10] 0 | [11] 0.022 | [12] 0.018 | [13] 0.014 | [14] -0.002 | [15] 0.066 | [16] -0.001

NME2 isoform 2 (UniProt P22392)
inactive: erlotinib -0.016 | [1] 0.01 | [2] 0.027 | [3] -0.009 | [4] -0.005 | [5] 0.004 | [6] 0.034 | [7] 0.004 | [8] -0.011 | IRAK-1-4 Inhibitor I 0.019 | ibrutinib 0.012 | [9] -0.005 | ralimetinib 0.001 | [10] -0.014 | [11] 0.015 | [12] -0.016 | [13] -0.002 | [14] 0.018 | [15] 0.005 | [16] -0.011

NPC2 (UniProt P61916)
inactive: erlotinib -0.017 | [1] 0.198 | [2] 0.059 | [3] -0.057 | [4] 0.039 | [5] -0.025 | [6] 0.069 | [7] -0.17 | [8] -0.039 | IRAK-1-4 Inhibitor I 0.038 | ibrutinib 0.036 | [9] 0.009 | ralimetinib 0.067 | [10] -0.06 | [11] 0.003 | [12] -0.033 | [13] 0.054 | [14] 0.022 | [15] 0.024 | [16] -0.004

NUMB (UniProt P49757)
inactive: erlotinib -0.029 | [1] 0.01 | [2] 0.044 | [3] -0.052 | [4] -0.009 | [5] -0.009 | [6] -0.029 | [7] -0.107 | [8] -0.043 | IRAK-1-4 Inhibitor I 0.022 | ibrutinib 0.03 | [9] 0.005 | ralimetinib 0.021 | [10] -0.055 | [11] 0.003 | [12] -0.007 | [13] -0.015 | [14] 0.081 | [15] 0.004 | [16] -0.005

NUDT4 (UniProt Q9NZJ9)
inactive: erlotinib -0.043 | [1] 0.233 | [2] -0.022 | [3] 0.07 | [4] -0.055 | [5] -0.009 | [6] 0.039 | [7] 0.059 | [8] 0.026 | IRAK-1-4 Inhibitor I -0.026 | ibrutinib 0.091 | [9] 0.022 | ralimetinib 0.074 | [10] 0.067 | [11] -0.012 | [12] 0.017 | [13] 0.003 | [14] -0.105 | [15] -0.014 | [16] 0.058

NUDT5 (UniProt Q9UKK9)
inactive: erlotinib -0.013 | [1] -0.051 | [2] 0.046 | [3] 0.027 | [4] -0.001 | [5] -0.002 | [6] -0.023 | [7] -0.026 | [8] 0.014 | IRAK-1-4 Inhibitor I 0.005 | ibrutinib 0.059 | [9] -0.008 | ralimetinib -0.047 | [10] -0.05 | [11] -0.047 | [12] -0.007 | [13] -0.002 | [14] 0.006 | [15] -0.014 | [16] -0.042
